Reference: patent US4803221A, “Anthracene derivatives” (priority 1987, dated 1989)
For some of these results: At least one read-out could not be matched to a standard name with certainty. For some of these results: At least one compound was matched to its structure with a doubt left.

Assays:
[1] = system: lymphocytic leukemia P388/0; experiment: Lymphocytic Leukemia P388/0 Test; format: in vivo, mouse (CD2-F1); details: ip days 1, 5, 9; doses on a mg/kg basis
Text: Methods for evaluating the antitumor activity of these compounds are essentially those used in the Tumor Panel by the Developmental Therapeutics Program, Division of Cancer Treatment, National Cancer Institute, A. Goldin, et al., Methods in Cancer Research, Vol. XVI, p.165, Academic Press (1979). Some modifications, in dose level and schedule have been made to increase the testing efficiency.
CD2-F1 mice, of the same sex, weighing 20±3 g are used for this test. Control and test animals are injected intraperitoneally with a suspension of ~10^6 viable P388/0 tumor cells on day 0. In each test, several dose levels which bracket the LD20 of the compound are evaluated; each dose level group contains six animals. The test compounds are prepared either in physiologic saline containing 0.05% Tween 80 or distilled water containing 5% dextrose and are administered intraperitoneally on days 1, 5, and 9 relative to tumor implant. Doses are on a mg/kg basis according to individual animals' body weights. The day of death for each animal is recorded, the median identified for each group and the ratios of median survival time for treated (T)/control (C) Groups are calculated. The criterion for activity is T/C×100≥120%.

B16 melanoma = experiment: Melanotic Melanoma B16; format: in vivo, mouse (B6C3-F1); details: survival, ip tumor; dose per compound (30-300 mg/kg, Table III); active if >125%

Row | SMILES | highest nontoxic dose where the LD20 was not determined (values in parentheses in LD20 column) [1] | T/C × 100% Excluding 60 day Survivors (B16 melanoma)
1 | CC(CO)(CO)NCc1c2ccccc2c(Cl)c2ccc(C(C)(C)C)cc12.Cl [Example 41C, 2-(((2-tert-butyl-10-chloro-9-anthracenyl)methyl)amino)-2-methyl-1,3-propanediol hydrochloride.1/4H2 O] | 300 | 
2 | CC(CO)(CO)NCc1c2ccccc2c(CCCl)c2ccccc12 [Example 4C, 2-(((10-(2-Chloroethyl)-9-anthracenyl)methyl)amino)-2-methyl-1,3-propanediol methanesulfonate] |  | +146%
3 | CC(CO)(CO)NCc1c2ccccc2c(Br)c2ccccc12.Cl [Example 8B, 2-(((10-Bromo-9-anthracenyl)methyl)amino)-2-methyl-1,3-propanediol hydrochloride] |  | +125%
4 | CCOc1c2ccccc2c(CNC(C)(CO)CO)c2ccccc12.Cl [Example 24B, 2-(((10-Ethoxy-9-anthracenyl)methyl)amino)-2-methyl-1,3-propanediol hydrochloride] |  | +146%
